PubChem BioAssay AID1671195, Yale University – 2021
Assay: 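Regulators of LDL receptor activity judged by labelled LDL uptake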 (primary screen). Cells: human Huh7 hepatoma cells. Reagent: siRNA pool against human genes, 18 nM. Timing: about 2 to 2.5 days of knockdown, then 8 h LDL uptake. Challenge: DiI-labelled LDL at 30 µg/ml for 8 h, in lipoprotein-deficient serum medium. Measured: 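Per-cell DiI-LDL intensity by automated imaging; well means scaled to the plate median and given as a robust z-score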. Scale: robust z-score: higher = more LDL uptake after knockdown. Call rule: 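a gene counts as active if at least two replicate z-scores exceed ±2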.
In all, the deposit lists about 22,000 reagents; this is a part drawn at random. About 1,510 of them (6.9%) count as active. 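Active includes knockdowns raising or lowering LDL uptake; positive z-scores mean more uptake, negative mean less.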 Reagents against one gene are numbered here.

gene knocked down	pool no.	robust z-score, replicate 1	robust z-score, replicate 2	robust z-score, replicate 3	Outcome
MT1F	1	-2.09	-2.81	-1.97	active
AQP6	1	-0.295	-0.35	-0.546	inactive
HLA-DMA	1	3.79	3.5	3.75	active
LRRN3	1	1.09	2.98	0.751	inactive
NT5C2	1	0.747	0.723	1.66	inactive
RHBDL2	1	-1.13	-1.05	-0.0148	inactive
TET2	1	0.913	-0.0906	0.878	inactive
TET2	2	-0.921	-1.35	-1.26	inactive
BTC	1	-0.756	-0.169	-0.312	inactive
LGALS12	1	1.11	1.12	0.775	inactive
ACTL6B	1	-0.216	-0.106	0.631	inactive
LOC402221	1	-1.09	-0.91	-1.19	inactive
LOC441138 (retired record)	1	1.98	1.88	0.863	inactive
RPL17P25	1	-0.78	-1.24	-1.15	inactive
TSKS	1	-1.26	-0.782	-0.962	inactive
MTHFD2L	1	-0.286	-0.442	-0.868	inactive
RNF128	1	-1.52	-1.95	-1.29	inactive
GPKOW	1	-1.07	0.511	-1	inactive
CCDC54	1	2.77	2.48	3.05	active
LOC389059 (retired record)	1	1.35	1.54	1.58	inactive
PBOV1	1	0.537	0.828	0.249	inactive
LIN52	1	-0.717	-1.21	-1.17	inactive
SOX18	1	0.341	0.679	0.954	inactive

Called active, among the entries above:
gene knocked down	pool no.	robust z-score, replicate 1	robust z-score, replicate 2	robust z-score, replicate 3	Outcome
MT1F	1	-2.09	-2.81	-1.97	active
HLA-DMA	1	3.79	3.5	3.75	active
CCDC54	1	2.77	2.48	3.05	active

Additional entries follow.
gene knocked down	pool no.	robust z-score, replicate 1	robust z-score, replicate 2	robust z-score, replicate 3	Outcome
CAV1	1	1.56	-0.421	-0.52	inactive
B3GALT9	1	-0.408	-0.439	-0.571	inactive
IRX3	1	1.93	1.01	0.0507	inactive
CNPPD1	1	-0.734	-0.0618	-0.132	inactive
FOXD3	1	-0.869	-0.591	-0.657	inactive
LOC440046 (retired record)	1	2.09	1.41	1.49	inactive
TRPM1	1	-1.27	-1.76	-1.57	inactive
LOC440708 (retired record)	1	-2.18	-1.65	-1.65	inactive
NFKB1	1	0.393	0.43	0.295	inactive
RPS28	1	-0.895	-0.482	-1.23	inactive
PSMB7	1	0.317	0.162	-0.0931	inactive
CHCHD3	1	0.754	-0.391	0.574	inactive
TAB1	1	-0.775	-0.893	-1.94	inactive
POT1	1	2.03	2.26	0.872	inactive
ORM2	1	0.26	0.382	0.571	inactive
DNAL1	1	-0.47	-0.713	-1.29	inactive
LOC389777 (retired record)	1	-1.35	-1.04	-1.56	inactive
DAGLA	1	-0.923	0.065	-0.93	inactive
BRPF3	1	-1.08	-1.42	-1.31	inactive
DISP3	1	-1.69	-2.29	-0.311	inactive
GOLGA6EP	1	0.157	0.105	-0.264	inactive
ING2-DT	1	-0.595	-0.77	-0.578	inactive
PRKAA1	1	0.0271	0.322	0.75	inactive
SDC3	1	-1.17	-1.59	-1.51	inactive
TEDDM1	1	-1.04	-0.967	-0.827	inactive
TFR2	1	1.77	1.52	1.63	inactive
PCBD2	1	1.27	1.09	1.09	inactive
RPL10P14	1	0.905	0.904	0.613	inactive
HOXA9	1	-0.337	-0.577	-0.535	inactive
SPPL2C	1	2.55	1.37	1.56	inactive
SHANK2-AS3	1	1.3	0.973	1.8	inactive
DGKG	1	0.505	-0.773	-0.232	inactive
MS4A15	1	1.09	0.899	1.59	inactive
RPS9	1	-0.974	-1.33	-0.0346	inactive
BDH2P1	1	0.229	-0.295	-0.329	inactive
AKR1C4	1	-1.4	-1.19	-1.96	inactive
LINC03106	1	0.758	0.977	1.05	inactive
SEC24C	1	-0.706	-0.987	-1.19	inactive
ZNF296	1	-1.04	-0.79	-0.822	inactive
ARL5C	1	0.491	0.852	0.573	inactive
SLCO3A1	1	-0.976	-1.13	-0.832	inactive
UBE2A	1	0.978	-0.764	1.32	inactive
TBC1D10B	1	0.211	0.599	-0.38	inactive
LRRC46	1	-0.172	-1.17	-1.13	inactive
SPATA20	1	-0.072	0.786	0.555	inactive
